The source of these data is article PMC5385498.

Amino acid sequences for entries named in this document (tags omitted).
UniProt Q8TC59: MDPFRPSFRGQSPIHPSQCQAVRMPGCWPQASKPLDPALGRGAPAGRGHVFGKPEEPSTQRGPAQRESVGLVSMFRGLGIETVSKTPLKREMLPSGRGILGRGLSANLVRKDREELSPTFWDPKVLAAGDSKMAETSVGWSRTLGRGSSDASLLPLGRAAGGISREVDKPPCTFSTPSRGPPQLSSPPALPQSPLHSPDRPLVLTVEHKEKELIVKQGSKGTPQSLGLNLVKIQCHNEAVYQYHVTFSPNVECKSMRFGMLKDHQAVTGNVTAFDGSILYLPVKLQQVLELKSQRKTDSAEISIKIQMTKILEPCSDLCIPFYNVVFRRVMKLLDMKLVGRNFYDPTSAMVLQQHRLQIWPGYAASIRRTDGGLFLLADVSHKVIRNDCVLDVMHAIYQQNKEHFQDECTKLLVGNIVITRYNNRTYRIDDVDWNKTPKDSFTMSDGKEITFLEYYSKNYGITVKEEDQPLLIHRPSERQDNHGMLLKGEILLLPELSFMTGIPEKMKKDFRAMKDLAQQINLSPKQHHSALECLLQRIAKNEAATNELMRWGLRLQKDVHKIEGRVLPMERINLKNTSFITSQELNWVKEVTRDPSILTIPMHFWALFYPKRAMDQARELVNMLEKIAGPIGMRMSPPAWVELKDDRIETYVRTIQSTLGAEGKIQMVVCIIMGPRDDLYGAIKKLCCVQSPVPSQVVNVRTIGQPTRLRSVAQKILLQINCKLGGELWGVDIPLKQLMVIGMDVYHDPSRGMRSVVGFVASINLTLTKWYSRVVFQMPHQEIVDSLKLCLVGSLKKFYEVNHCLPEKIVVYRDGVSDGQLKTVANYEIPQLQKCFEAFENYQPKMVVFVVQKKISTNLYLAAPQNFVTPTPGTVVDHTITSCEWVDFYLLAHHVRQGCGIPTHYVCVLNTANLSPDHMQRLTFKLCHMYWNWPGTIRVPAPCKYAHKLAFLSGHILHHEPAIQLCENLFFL

The target of experiment [1] is TBCB (Tubulin cofactor B) in cell lysates (UniProt Q99426). Briefly: co-IP; cell lysates (with or without knock-down or overexpression of HILI or HSP90); immunoprecipitated with antibody and protein A + G agarose beads, Western blot. For orientation: In western blotting, separated proteins are transferred to a membrane and probed.
Experiment [2] has the same target. Briefly: co-IP; two-step immunoprecipitation.
Experiment [3] addresses TBCB (Tubulin cofactor B), endogenous (human (endogenous in HeLa)) (UniProt Q99426). Nature of the experiment: co-IP; endogenous proteins of HeLa cells; lysate immunoprecipitated with antibody and protein A + G agarose beads, Western blot.
In experiment [4] the target is TBCB (Tubulin cofactor B), in vitro translated (UniProt Q99426). Briefly: co-IP; in vitro translated proteins (TNT Quick Coupled system), 20 ul of each mixed in 200 ul binding buffer (20 mM Tris-HCl pH 7.5, 150 mM NaCl, 1 mM dithiothreitol, 0.1% Tween 20, protease inhibitors), 4 °C, 3 h; then coimmunoprecipitation and Western blot.
Experiment [5] addresses T1, TBCB (Tubulin cofactor B) in cell lysates, Q99426.
T1 chain: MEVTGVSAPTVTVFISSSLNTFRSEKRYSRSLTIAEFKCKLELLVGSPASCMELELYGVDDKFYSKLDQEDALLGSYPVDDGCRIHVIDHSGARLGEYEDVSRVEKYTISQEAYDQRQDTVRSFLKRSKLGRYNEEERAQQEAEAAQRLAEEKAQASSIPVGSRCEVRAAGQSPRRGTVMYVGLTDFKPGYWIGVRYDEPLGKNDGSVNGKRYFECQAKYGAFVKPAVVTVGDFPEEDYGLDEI
Briefly: co-IP; cell lysates (with or without knock-down or overexpression of HILI or HSP90); immunoprecipitated with antibody and protein A + G agarose beads, Western blot. To be noted: remark: other sources report otherwise.

No constants are given. Whether binding was seen depends on the method and setting. Binding seen in cells or lysates may run through a third protein. Some binding calls cover weakened binding; strength is not graded here.

Take “HILI (human PIWIL2) in cell lysates (from UniProt Q8TC59 1-973)”: the binding entry in experiment [1] and in experiment [2] was “binds” throughout. For “HILI (human PIWIL2), endogenous (from UniProt Q8TC59 1-973)”, the binding result in experiment [3] is “binds”. Turning to “HILI (human PIWIL2), in vitro translated (from UniProt Q8TC59 1-973)”, the binding result in experiment [4] is “binds”.

B1: Gigaxonin in cell lysates, Q9H2C0 1-597 (protein)
chain: MAEGSAVSDPQHAARLLRALSSFREESRFCDAHLVLDGEEIPVQKNILAAASPYIRTKLNYNPPKDDGSTYKIELEGISVMVMREILDYIFSGQIRLNEDTIQDVVQAADLLLLTDLKTLCCEFLEGCIAAENCIGIRDFALHYCLHHVHYLATEYLETHFRDVSSTEEFLELSPQKLKEVISLEKLNVGNERYVFEAVIRWIAHDTEIRKVHMKDVMSALWVSGLDSSYLREQMLNEPLVREIVKECSNIPLSQPQQGEAMLANFKPRGYSECIVTVGGEERVSRKPTAAMRCMCPLYDPNRQLWIELAPLSMPRINHGVLSAEGFLFVFGGQDENKQTLSSGEKYDPDANTWTALPPMNEARHNFGIVEIDGMLYILGGEDGEKELISMECYDIYSKTWTKQPDLTMVRKIGCYAAMKKKIYAMGGGSYGKLFESVECYDPRTQQWTAICPLKERRFGAVACGVAMELYVFGGVRSREDAQGSEMVTCKSEFYHDEFKRWIYLNDQNLCIPASSSFVYGAVPIGASIYVIGDLDTGTNYDYVREFKRSTGTWHHTKPLLPSDLRRTGCAALRIANCKLFRLQLQQGLFRIRVHSP
Turning to B1, in experiment [5], the binding entry was “binds”.
